Laboratory results published in the supplement of paper PMC12823440, “Inhibitors supercharge kinase turnover through native proteolytic circuits” (Nature, 2025).
The list shows a part of the results. Hit calls seldom repeat between salt and free forms of one compound.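 Kinases were expressed as nanoluciferase fusions in K562 cells and luminescence was read every 4 h between 2 and 18 h as percent of control, DMSO set to 100% and a positive control to 0%. A time point counts as decreased when the signal drops significantly (2 sigma). The hit call is the authors' own, does not follow from the count of time points alone, and its rule is not shown.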

By UniProt entry, the sequences of proteins in these tests, tags left out. Where a name states a change or a piece, a line headed by the entry shows the natural chain unless it says otherwise.
UniProt P53667: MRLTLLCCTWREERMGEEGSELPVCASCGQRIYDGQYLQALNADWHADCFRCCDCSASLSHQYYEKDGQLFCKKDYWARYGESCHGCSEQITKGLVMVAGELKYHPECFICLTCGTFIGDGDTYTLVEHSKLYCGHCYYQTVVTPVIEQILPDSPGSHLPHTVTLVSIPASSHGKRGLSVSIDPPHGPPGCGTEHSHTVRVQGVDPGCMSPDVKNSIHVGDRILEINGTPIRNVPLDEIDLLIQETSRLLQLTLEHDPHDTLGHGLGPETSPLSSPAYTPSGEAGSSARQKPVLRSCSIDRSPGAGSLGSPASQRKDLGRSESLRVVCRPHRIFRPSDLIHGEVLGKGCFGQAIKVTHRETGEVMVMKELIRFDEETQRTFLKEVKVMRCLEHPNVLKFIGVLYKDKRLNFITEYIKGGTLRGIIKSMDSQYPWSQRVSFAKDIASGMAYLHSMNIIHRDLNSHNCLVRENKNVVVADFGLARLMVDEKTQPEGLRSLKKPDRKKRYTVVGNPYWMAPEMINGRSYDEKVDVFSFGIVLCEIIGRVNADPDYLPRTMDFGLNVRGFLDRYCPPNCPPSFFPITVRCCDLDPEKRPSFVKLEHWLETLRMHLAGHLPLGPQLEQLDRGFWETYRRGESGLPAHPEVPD

What follows are compounds tested against LIMK1 (UniProt P53667) (assay: number of time points (of 5) at which kinase-Nluc abundance scored as decreased, DMSO-normalised (count); higher = more persistent destabilization). Conditions: K562; 2-18 h.

**Q.** For `CCS(=O)(=O)c1ccc(Oc2cc(O[C@@H](C)CO)cc(C(=O)Nc3ccn(C)n3)c2)cn1` (10 µM), which “number of time points” value is on record?
**A.** 0

**Q.** With `O=C1C(=Cc2ccc(O)c(O)c2)Oc2ccccc21` (2.5 µM) as the compound, how does the “number of time points” value read?
**A.** 0

**Q.** Which “number of time points” value does the source give for `CN(C)CCCNc1ccn2ncc(-c3ccc4c(c3)OCO4)c2n1` (10 µM) here?
**A.** 0

**Q.** Which “number of time points” value does the source give for `COc1ccc(C(=O)c2cn(C(C)C)c3ncnc(N)c23)cc1NC(=O)Nc1ccc(Cl)cc1Cl` (10 µM) here?
**A.** 4

**Q.** Which “number of time points” value does the source give for `C[C@@H]1CN(Cc2cn[nH]c2-c2ccc(C#N)cc2)CCN1c1ccc(C(F)(F)F)cn1` (2.5 µM) here?
**A.** 0

**Q.** `O=C1c2c(O)cc(O)cc2O[C@H](c2cc(O)c(O)c(O)c2)[C@H]1O` [Dihydromyricetin] (10 µM) was tested. Which “number of time points” value did it give?
**A.** 0

**Q.** With `C=CC(=O)N[C@H]1CCOC[C@H]1Nc1ncc2cc(-c3c(Cl)c(OC)cc(OC)c3Cl)ccc2n1` [Fisogatinib] (10 µM) as the compound, how does the “number of time points” value read?
**A.** 0

**Q.** `CC(C)(O)c1cc(Nc2cc(Oc3cn(C4CC4)nc3C3CCOCC3)ccn2)ccn1` (10 µM) was tested. Which “number of time points” value did it give?
**A.** 0

**Q.** For `CC[C@H](C)[C@@H]1NC(=O)[C@@H]2CCCN2C(=O)[C@@H]2CCCN2C(=O)[C@@H]2CCCN2C(=O)[C@H](CC(C)C)NC(=O)CNC(=O)CNC(=O)[C@H](Cc2ccccc2)NC1=O` [Heterophyllin B] (10 µM), which “number of time points” value is on record?
**A.** 0

**Q.** For `COc1cc(-c2cnc(N)c(-c3ccc(NC(=O)c4cn(CC5CCOCC5)cc(-c5ccc(C)cn5)c4=O)cc3F)c2)ccc1OC[C@H]1COCCO1` [DS-1205b (free base)] (10 µM), which “number of time points” value is on record?
**A.** 0

**Q.** Which “number of time points” value does the source give for `C=CC(=O)Nc1cccc(Nc2nc(Nc3ccc(Oc4ccnc(C(=O)NC)c4)cc3)ncc2F)c1` (2.5 µM) here?
**A.** 0
